Test results: paper doi:10.1101/2022.06.30.498318
No constants are given. Whether binding was seen depends on the method and setting. Binding seen in cells or lysates may run through a third protein. Sequences can lack the tags named with a protein.

Legend:
[1] = molecular target: T1, Arabidopsis FBN4 with C-terminal myc tag (Arabidopsis thaliana) (UniProt Q9LW57); test: co-IP
T1 sequence: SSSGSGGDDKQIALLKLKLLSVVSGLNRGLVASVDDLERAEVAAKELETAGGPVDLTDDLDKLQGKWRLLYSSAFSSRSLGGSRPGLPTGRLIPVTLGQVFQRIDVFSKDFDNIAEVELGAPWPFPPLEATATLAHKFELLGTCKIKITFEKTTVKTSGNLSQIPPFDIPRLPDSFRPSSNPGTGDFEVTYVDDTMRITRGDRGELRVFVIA

[2] = molecular target: T2, Arabidopsis phosphoribulokinase with C-terminal myc tag (Arabidopsis thaliana) (UniProt P25697); test: co-IP
T2 sequence: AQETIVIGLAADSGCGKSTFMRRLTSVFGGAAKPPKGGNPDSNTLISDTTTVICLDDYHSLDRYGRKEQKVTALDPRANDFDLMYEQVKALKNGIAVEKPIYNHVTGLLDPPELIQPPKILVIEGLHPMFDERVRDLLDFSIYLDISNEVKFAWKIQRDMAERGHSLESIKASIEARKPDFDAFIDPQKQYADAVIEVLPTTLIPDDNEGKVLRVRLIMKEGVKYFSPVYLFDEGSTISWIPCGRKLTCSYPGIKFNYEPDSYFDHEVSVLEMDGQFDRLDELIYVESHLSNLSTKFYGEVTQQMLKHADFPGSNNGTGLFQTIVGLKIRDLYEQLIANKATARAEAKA

B1: Arabidopsis phytoene synthase with C-terminal GFP tag (enzyme, UniProt P37271 71-422)
chain: SSLVASPSGEIALSSEEKVYNVVLKQAALVNKQLRSSSYDLDVKKPQDVVLPGSLSLLGEAYDRCGEVCAEYAKTFYLGTLLMTPERRKAIWAIYVWCRRTDELVDGPNASHITPMALDRWEARLEDLFRGRPFDMLDAALADTVARYPVDIQPFRDMIEGMRMDLKKSRYQNFDDLYLYCYYVAGTVGLMSVPVMGIDPKSKATTESVYNAALALGIANQLTNILRDVGEDARRGRVYLPQDELAQAGLSDEDIFAGKVTDKWRNFMKMQLKRARMFFDEAEKGVTELSAASRWPVWASLLLYRRILDEIEANDYNNFTKRAYVGKVKKIAALPLAYAKSVLKTSSSRLSI
For B1, the binding [1] was “no binding” and the binding [2] was “no binding”.
